This is one part of the list.

Sequences of proteins named here, by UniProt entry; tags and fusion partners are left off.
UniProt Q0JBA9, entry or part of it: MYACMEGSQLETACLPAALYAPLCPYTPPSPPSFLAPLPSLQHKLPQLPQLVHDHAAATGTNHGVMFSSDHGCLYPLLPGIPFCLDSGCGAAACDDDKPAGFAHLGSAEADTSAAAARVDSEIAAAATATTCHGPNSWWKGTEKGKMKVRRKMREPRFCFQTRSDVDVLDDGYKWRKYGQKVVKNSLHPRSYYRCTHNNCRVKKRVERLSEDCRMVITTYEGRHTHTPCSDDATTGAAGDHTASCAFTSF

The target of the test is OsWRKY34 (Oryza sativa, UniProt Q0JBA9 1-250). The experiment in a line: protein-binding microarray (RPBM); PBS, 2% BSA, 51.3 ng/ul salmon testes DNA, 50 uM zinc acetate, 200 nM TF, 25 C, 1 h; high values mean tight binding. The following applies: protein: recombinant; tags: N-terminal polyhistidine and DsRed monomer fusion (pET32a); label: CyDye5-dUTP incorporated in the synthesized complementary strand; 3' TTTTT single-stranded linker to array surface; dsDNA, one strand shown. Summed up: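 The binding signal for each feature is its fluorescence intensity in arbitrary units. An Axon 4000B scanner was used to read a custom Agilent array that had been made double-stranded with Cy5-dUTP primer extension, blocked with 2% BSA, incubated at 25 °C for 1 h with 200 nM protein in PBS, 2% BSA, salmon testes DNA and 50 µM zinc acetate, and washed. The protein was an N-terminal polyhistidine–DsRed transcription factor fusion from E. coli BL21-CodonPlus, purified on Ni–NTA.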
In the case of “TTGTTTGGTTTTAAAATATTGCTATGTTTTTCTATGAATTCGGAGTCACCTAGTGCAG”, the binding signal is 9250 fluorescence intensity (a.u.). For “ATTTTCTGACTAAGTACCACATCAATGCCATGTTAGCTGACGGAGTCACCTAGTGCAG” the value was 8890 fluorescence intensity (a.u.); for “TCCTCCTCTCCGCTTCTCCATTCGCCGGCGCCGCCCGAACCGGAGTCACCTAGTGCAG”, 10200 fluorescence intensity (a.u.); for “TCCATTCCACGACAACTCCAGCCATGTACATGTATATATACGGAGTCACCTAGTGCAG”, 9140 fluorescence intensity (a.u.). To “TTCACATCTCGTTTTATGTCTTCTTTGTATTTGCATGAAGCGGAGTCACCTAGTGCAG” belongs 9100 fluorescence intensity (a.u.). Consider “CGCCGCGCTTCCGCCTCTCCACCCGCCGCCGCCTCCCTCGCGGAGTCACCTAGTGCAG”, for which the binding signal was 9590 fluorescence intensity (a.u.). For “TGGCCGGGAGGGTTGGCCCTTGTGGTTTCGGGGTTTGGTTCGGAGTCACCTAGTGCAG” the value was 15900 fluorescence intensity (a.u.). In the case of “GATAACAGCACCAATCTTAACATTGCAGCTTATTACACACCGGAGTCACCTAGTGCAG”, the binding signal is 9500 fluorescence intensity (a.u.). For “TATAAGTCTTTCTATCATTGTCCACATTCATATAGATATTCGGAGTCACCTAGTGCAG”, the binding signal is 9730 fluorescence intensity (a.u.). For “CCGCACCACCGCTCCCGCCCGTCTCACCGGCGACGCAGCCCGGAGTCACCTAGTGCAG” the value was 8650 fluorescence intensity (a.u.); for “GTATTTTTCTCCATACTGCAAAACGCACCGTGGACGCGACCGGAGTCACCTAGTGCAG”, 8100 fluorescence intensity (a.u.); for “GGATAGTGTGTTGCAAGACCGATGTTTGGTCCATGTAGCCCGGAGTCACCTAGTGCAG”, 9140 fluorescence intensity (a.u.).

Consider “AACCACAACCTGCCACGTACTCTACTCTACCCGCCGCGCGCGGAGTCACCTAGTGCAG”, for which the binding signal is 11800 fluorescence intensity (a.u.). For “TTTGACTGTTTTCTGTTCTTTTGCAAAATGTGGAGCCATGCGGAGTCACCTAGTGCAG”, the binding signal is 8520 fluorescence intensity (a.u.).

Turning to “TCTGCGCGCCGTACCTCTGCACGTACGTACGCCGGCGCGCCGGAGTCACCTAGTGCAG”, the binding signal was 8300 fluorescence intensity (a.u.).

Turning to “TACTCTAATAGCTATCTACTGTCACTCGGGAGTTTATTCGCGGAGTCACCTAGTGCAG”, the binding signal is 8180 fluorescence intensity (a.u.). For “GCCGGCGGCAGGGTGGGGCGGGGACGCCTGCCGGCGTCGGCGGAGTCACCTAGTGCAG”, the binding signal is 9860 fluorescence intensity (a.u.).

Turning to “CACTGCAATGACTAGATTACGTGCTCTTTCGCAACCCATACGGAGTCACCTAGTGCAG”, the binding signal is 9520 fluorescence intensity (a.u.). For “ACATATAATTGCCACGTCAGCGCCACATCAATGCCACGTGCGGAGTCACCTAGTGCAG” the value was 8840 fluorescence intensity (a.u.). For “GCCGATCTCCATCCCGCGAGCGAGCAGGGGCGCCCGGCGCCGGAGTCACCTAGTGCAG” the value was 8430 fluorescence intensity (a.u.); for “CTCATTGCATCTAGCTAGCTTTTCTGTCTCCTGAATTTCTCGGAGTCACCTAGTGCAG”, 8910 fluorescence intensity (a.u.). For “GGTACAGAAATAGCCAGTAGTATTATCATTCACACTTCCACGGAGTCACCTAGTGCAG” the value was 8510 fluorescence intensity (a.u.); for “CTCTCTCTCGGCGAAATGCAGCACCCAAAATTACGGCCCACGGAGTCACCTAGTGCAG”, 9870 fluorescence intensity (a.u.).
